These are yes or no findings as the source states them, for the method shown. Binding seen in cells or lysates may run through a third protein. Here binding means that the protein was enriched with, or labelled near, the bait; the list need not be complete.
Target: mouse hFc-tagged IFN-β (mouse) (UniProt P01575)
Experiment: affinity purification with mass spectrometry; about 500 µg of proteins of 30-fold concentrated hEP-CdM incubated with or without mouse hFc-tagged IFN-β (1:1000) at 4 °C overnight; protein G magnetic beads 4 h at 4 °C; five washes in IP buffer; SDS-PAGE, silver staining, MS (Q Exactive, MASCOT); candidates selected by molecular weight and abundance; only the target purified

Protein sequences, listed by entry. Tags and fused reporters are not part of them. Residues count along the entry.
UniProt P01575, residues 22-182: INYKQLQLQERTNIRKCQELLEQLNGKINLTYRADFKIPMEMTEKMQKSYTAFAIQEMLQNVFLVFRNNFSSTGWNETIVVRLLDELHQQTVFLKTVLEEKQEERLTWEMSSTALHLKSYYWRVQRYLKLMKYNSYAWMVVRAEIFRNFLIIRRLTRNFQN
UniProt P18065, residues 36-325: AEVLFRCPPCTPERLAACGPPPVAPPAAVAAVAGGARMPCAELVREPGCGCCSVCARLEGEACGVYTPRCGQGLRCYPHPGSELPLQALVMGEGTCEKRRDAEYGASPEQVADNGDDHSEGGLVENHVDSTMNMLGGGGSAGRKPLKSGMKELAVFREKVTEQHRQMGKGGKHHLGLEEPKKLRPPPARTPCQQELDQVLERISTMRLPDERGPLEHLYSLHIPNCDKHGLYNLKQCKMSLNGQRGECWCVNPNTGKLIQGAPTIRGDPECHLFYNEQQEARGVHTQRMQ
UniProt P07355: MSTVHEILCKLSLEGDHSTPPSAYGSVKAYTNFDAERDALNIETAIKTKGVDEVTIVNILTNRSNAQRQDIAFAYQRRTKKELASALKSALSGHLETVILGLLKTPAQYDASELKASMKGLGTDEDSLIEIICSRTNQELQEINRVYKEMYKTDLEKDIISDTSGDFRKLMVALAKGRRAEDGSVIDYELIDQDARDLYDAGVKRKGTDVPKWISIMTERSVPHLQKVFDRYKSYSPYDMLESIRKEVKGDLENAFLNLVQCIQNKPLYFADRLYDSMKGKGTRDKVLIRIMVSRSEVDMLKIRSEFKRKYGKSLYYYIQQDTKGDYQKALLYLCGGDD
UniProt P02649, residues 19-317: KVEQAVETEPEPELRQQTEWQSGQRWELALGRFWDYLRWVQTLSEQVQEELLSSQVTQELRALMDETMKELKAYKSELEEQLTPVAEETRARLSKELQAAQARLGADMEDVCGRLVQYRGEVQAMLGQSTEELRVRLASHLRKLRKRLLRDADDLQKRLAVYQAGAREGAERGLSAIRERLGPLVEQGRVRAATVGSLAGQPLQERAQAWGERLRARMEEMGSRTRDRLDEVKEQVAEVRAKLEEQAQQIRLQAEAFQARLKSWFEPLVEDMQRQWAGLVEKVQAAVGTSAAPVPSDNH

| binding | Substance |
| --- | --- |
| binds | insulin-like growth factor binding protein 2 (IGFBP2) (from UniProt P18065 36-325) |
| binds | annexin A2 (ANXA2) (from UniProt P07355 1-339) |
| binds | apolipoprotein E (APOE) (from UniProt P02649 19-317) |
